Consider 22 molecules from patent publication US20250388687A1.

Protein sequences, listed by entry. Tags and fused reporters are not part of them. Lines headed by an entry give the natural chain unless they say otherwise; changes in a name come on top. Residues count along the entry.
UniProt P19235, residues 25-250: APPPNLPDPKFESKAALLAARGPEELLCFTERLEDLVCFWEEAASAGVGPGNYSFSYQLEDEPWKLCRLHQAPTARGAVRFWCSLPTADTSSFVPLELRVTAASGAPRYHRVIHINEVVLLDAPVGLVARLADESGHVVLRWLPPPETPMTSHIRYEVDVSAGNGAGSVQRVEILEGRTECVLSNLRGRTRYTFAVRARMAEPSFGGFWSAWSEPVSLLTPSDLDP
UniProt P32927, residues 17-443: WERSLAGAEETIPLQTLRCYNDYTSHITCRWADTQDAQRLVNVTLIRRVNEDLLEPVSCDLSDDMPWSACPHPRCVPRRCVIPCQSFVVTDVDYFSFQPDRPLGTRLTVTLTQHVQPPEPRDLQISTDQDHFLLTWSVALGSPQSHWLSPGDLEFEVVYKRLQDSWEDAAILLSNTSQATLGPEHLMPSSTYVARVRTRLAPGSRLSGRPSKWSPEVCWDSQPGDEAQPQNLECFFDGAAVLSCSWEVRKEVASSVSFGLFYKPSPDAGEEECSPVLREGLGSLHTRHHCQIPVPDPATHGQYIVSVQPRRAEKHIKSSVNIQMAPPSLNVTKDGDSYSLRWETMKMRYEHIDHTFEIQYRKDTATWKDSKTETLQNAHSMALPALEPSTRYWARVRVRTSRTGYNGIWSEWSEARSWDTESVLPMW

Residue numbers refer to the chain shown, from its start. These are yes or no findings as the source states them, for the method shown. Some entries that bind do so weakly or less than the wild type.

The chains are these.
B1: clonotype 397 (antibody, V domains shown)
VH: QVQLQESGPGLVKPSQTLSLTCTVSGGSISSGGYYWSWIRQHPGKGLEWIGYIYYIGITYYNPSLKSRVTISVDTSKNQFSLKLSSVTAADTAVYYCARAFDYWGQGTLVTVSS
VL: SYVLTQPPSVSVPPGKTARITCGGNNVGSKSVHWYQQKPGQAPVLVIYYDTDRPSGIPERFSGSNSGNTATLSISRVEAGDEADYYCQVWDSRSDHVVFGGGTKLTVL
B2: clonotype 407 (antibody, V domains shown)
VH: EVQLVESGGGLVKPGGSLRLSCAASGFTFSNAWMSWVRQAPGKGLEWVGRIKSKSDGGTRDYAAPVKGRFTISRDDSKNTLYLQMNSLKTEDTAMFYCTTGGTHWGQGTLVTVSS
VL: SYELTQPPSVSVSPGQTARITCSADALPKQYAYWYQQKPGQAPVLVIYKDSERPSGIPERFSGSSSGTTVTLTISGVQAEDEADYYCQSADSSATWVFGGGTKLTVL
B3: clonotype 409 (antibody, V domains shown)
VH: B2 VH with S55T, R60T, A64T, D75A, Y82F, N86S, M95V, F96Y, Y97F, H104N
VL: SYELTQPPSVSVSPGQTARITCSADALPKQYAYWYQQKPGQAPVVVIYKDSERPSGIPERFSGSSSGTTVTLTISGVQAEDEADYYCQSLDSSGTYWVFGGGTKLTVL
B4: clonotype 69 (antibody, V domains shown)
VH: QVQLQESGPGLVKPSGTLSLTCAVSGGSISSSNWWSWVRQPPGKGLEWIGEIYHSGSTNYNPSLKSRVTISVDKSKNQFSLKLSSVTAADTAVYYCARRGAARPFDYWGQGTLVTVSS
VL: QAVLTQPASLSASPGASASLTCTLRSGINVGTYRIYWYQQKPGSPPQYLLRYKSDSDKQQGSGVPSRFSGSKDASANAGILLISGLQSEDEADYYCMIWHSSAYVVFGGGTKLTVL
B5: clonotype 56 (antibody, V domains shown)
VH: EVQLVESGGDLVQPGGSLKLSCAASGFSFSGSTLHWVRQASGKGLEWIGHIRSKPNNYATLYGASVKGRFTISRDDSKNTAYLQMNSLKIEDTAVYYCNGVYGGSSYFFDYWGQGTLVTVSS
VL: QAVLTQPASLSASPGASASLTCTLRSGINVGTYRIYWYQQKPGSPPQYLLRYKSDSDKQQGSGVPSRFSGSKDASANAGILLISGLQSEDEADYYCMIWHSSAVVFGGGTKLTVL
B6: clonotype 44 (antibody, V domains shown)
VH: QVQLVQSGAEVKKPGASVKVSCKASGYTFTSYGISWVRQAPGQGLEWMGWISPYNGNTNYAQNLQDRVTMITDTSTTTAYMELRSLRSDDTAVYYCARNHYYYMDVWGKGTTVTVSS
VL: QSALTQPASVSGSPGQSITISCTGTSSDVGGYNYVSWYQQHPGKAPKLMIYDVSKRPSGVSNRFSGSKSGNTASLTISGLQAEDEADYYCCSYAGSSTYVVFGGGTKLTVL
B7: clonotype 103 (antibody, V domains shown)
VH: QVQLVQSGAEVKKPGASVKVSCKASGYTFTSYGISWVRQAPGQGLEWMGWISVYNGNTNYAQKLQGRVTMTTDTSTSTAYMELRSLRSDDTAVYYCARQITATRGFDYWGQGTLVTVSS
VL: B6 VL with Y99F
B8: clonotype 102 (antibody, V domains shown)
VH: EVQLVQSGAEVKKPGESLKISCKGSGYSFTSYWIGWVRQMSGKGLEWMGIIYPSDSDTRYSPSFQGQVTISADKSISTAYLQWSSLKASDTAMYYCARQINWGAIDYWGQGTLVTVSS
VL: B6 VL with Y99F
B9: clonotype 10 (antibody, V domains shown)
VH: QVQLQQSGPGLVKPSQTLSLTCAISGDSVSSNSAAWNWIRQSPSRGLEWLGRTYYRSKWYNDYAVSVKSRITINPDTSKNQFSLQLNSVTPEDTAVYYCARKGELLGAFDIWGQGTMVTVSS
VL: QSALTQPASVSGSPGQSITISCTGTSSDVGGYNYVSWYQQHPGKAPKLMIYEVSNRPSGVSNRFSGSKSGNTASLTISGLQAEDEADYYCSSYTSSSTWVFGGGTKLTVL
B10: clonotype 109 (antibody, V domains shown)
VH: B9 VH with N37S, G103W, L106R, G107D, A108T
VL: QSALTQPASVSGSPGQSITISCTGTSSDVGGYNYVSWYQQHPGKAPKLMIYDVSKRPSGVSNRFSGSKSGNTASLTISGLQAEDEADYYCCSYAGSSTLGIDWVFGGGTKLTVL
B11: clonotype 36 (antibody, V domains shown)
VH: EVQLVESGGGLVTPGGSLRLSCAASGFTFNNYSMNWVRQAPGKGLEWVSSISSSSSYIYYADSVKGRFTISRDNAKNSLYLPMISLRAEDTAVYYCARDGITGTTFYFDYWGQGTLVTVSS
VL: B9 VL with A8R, I18V, E52D, N55K, S61P, N62D, S91C, T94A, S95G, S97Y
B12: clonotype 13 (antibody, V domains shown)
VH: B9 VH with V65G, T72I, N74I, F82L, N87K, G103W, L106R, G107D
VL: B10 VL with S96R, L111V
B13: clonotype 424 (antibody, V domains shown)
VH: QVQLVESGGGLVKPGGSLRLSCAASGFTFSDYYMSWIRQAPGKGLEWVSYISSSGSTIYYPDSVKGRFTISRDNAKNSLYLQMNSLRAEDTAVYYCARDGAAFDIWGQGTMVTVSS
VL: B9 VL with E52D, N55K, A86T, S91C, T94A, S95G, W99L
B14: clonotype 95 (antibody, V domains shown)
VH: EVQLVESGGGLVQPGGSLRLSCAASGFTFSSYSMNWVRQAPGKGLEWVSYISSSSSTIYYADSVKGRFTISRDNAKNSLYLQMNSLRDEDTAVYYCARDRYNFDYWGQGTLVTVSS
VL: QSALTQPRSVSGSPGQSVTISCTGTSSDVGGYNYVSWYQQHPGKAPKLMIYDVSKRPSGVPDRFSGSKSGNTASLTISGLQAEDEADYYCCSYAGSSWVFGGGTKLTVL
B15: clonotype 400 (antibody, V domains shown)
VH: QVQLVQSGAEVKKPGASVKVSCKASGYTFTSYDINWVRQATGQGLEWMGWMNPNSGNTGYAQKFQGRVTMTRNTSISTAYMELSSLRSEDTAVYYCARVAFDIWGQGTMVTVSS
VL: B14 VL with R8A, V18I, D52E, K55N, P61S, D62N, C91S, A94T, G95S, W98T
B16: clonotype 423 (antibody, V domains shown)
VH: QVQLVESGGGVVQPGRSLRLSCAASGFTFSNYGIHWVRQAPGKGLEWVAVIWYDGSNEYYVDSVKGRFIISRDNSKNTLYLQMNSLRAEDTALYYCALAVTGFDYWGQGTLVTVSS
VL: QSVLTQPPSVSEAPRQRVTISCSGSSSNIGNNAVNWYQQLPGKAPKLLIYYDDLLPSGVSDRFSGSKSGTSASLAISGLQSEDEADYYCAAWDDRLNGPVFGGGTKLTVL
B17: clonotype 426 (antibody, V domains shown)
VH: QIQLVQSGAEMKKPGASVKVSCKASGYTFTNYGISWVRQAPGQGLEWMGWINTYNDKTNFALKVQGRVTMTTDTSTSTAYMELRSLRSDDTAVYYCARDRGYSFDYWGQGTLVTVSS
VL: SYELTQPPSVSVSPGQTASITCSGDKLGDKHACWYQQKPGQSPMLVIYQDSKRPSGIPERFSGSNSGNTATLTISGTQPMDEADYYCQAWDSSTFGGGTKLTVL
B18: clonotype 110 (antibody, V domains shown)
VH: QVQLQQWGAGLLKPSETLSLTCAVYGGSFSGYYWSWIRQPPGKGLEWIGEINHSGSTNYNPSLKSRVTISVDTSKNQFSLKLSSVTAADTAVYYCASYGDFFDYWGQGTLVTVSS
VL: LPVLTQPPSASALLGASIKLTCTLSSEHSTYTIEWYQQRPGRSPQYIMKVKSDGSHSKGDGIPDRFMGSSSGADRYLTFSNLQSDDEAEYHCGESHTIDGQVGVVFGGGTKLTVL
B19: clonotype 111 (antibody, V domains shown)
VH: EVQLVESGGGLVKPGGSLRLSCAASGFTFSSYSMNWVRQAPGKGLEWVSSISSSSSYIYYADSVKGRFTISRDNAKNSLYLQMNSLRAEDTAVYYCARETELTVMDVWGKGTTVTVSS
VL: B18 VL with V104W
B20: anti-CD131 antibody clonotype 187 (Table 6) (antibody, V domains shown)
VH: QVQLVESGGGLVKPGGSLRLSCAASGFTFSDYYMSWIRQAPGKGLEWVSYISSSGSTIYYADSVKGRFTISRDNSKNTLYLQMNSLRAEDTAVYYCARDGGSSGYYSDYWGQGTLVTVSS
VL: B1 VL with P13A, V27I, T51S, S73T, R93S
B21: anti-CD131 antibody clonotype 188 (Table 6) (antibody, V domains shown)
VH: EVQLVESGGGLVQPGGSLRLSCAASGFTFSEYWMHWVRQAPGKGLVWVARINSDGSRTDYADSVKGRFTISRNNAKNRLNLQIDSLRAEDTAVYYCTRDLVYSSGWYDYWGQGTLVTVSS
VL: SSELTQDPAVSVALGQTVRITCQGDSLRSYYANWYQQKPGQAPILVIYGKNNRPSGIPDRFSGSSSGNTASLTITGAQAEDESDYYCNSRDSSGNHWVFGGGTKLTVL
B22: anti-CD131 antibody clonotype 183 (Table 6) (antibody, V domains shown)
VH: EVQLVESGGGLVQPGGSLRLSCAASGFTFSSSDMHWVRQAPGEGLEWVSAIYTTGDTYYPGSVQGRFTISRENAKNSLYLQMNSLRAGDTAVYYCARGFSGTYYGDFDYWGQGTLVTVSS
VL: SYELTQPPSVSVSPGQTARITCSGDALPKKYAYWYQQKSGQAPVLVIYEDSKRPSGIPERFSGSSSGTMATLTISGAQVEDEADYYCYSTDSSGNHWVFGGGTKLTVL

For one test, the target named is recombinant hEPOR-Fc (Sino Biological, Cat #10707-H02H) (human) (UniProt P19235). The test is described as follows: B cells sorted by staining with fluorescence labeled hEPOR-Fc, single cell sequencing.
As for B1, the binding entry is “binds”.
For the molecule B2, the binding entry was “binds”.
Regarding B3, the binding result is given as “binds”.
Same read-out and setting: the entry for B4 is “binds”; for B5 it is “binds”; for B6 it is “binds”.
The same measure, in the same setting: the entry for B7 is “binds”.
Same read-out and setting: as for B8, the entry is “binds”.
For the molecule B9, the binding entry is “binds”.
Still for that read-out and setting: as for B10, the entry is “binds”; as for B11, “binds”; as for B12, “binds”.
The same measure, in the same setting: as for B13, the entry is “binds”; as for B14, “binds”.
Take B15: the binding entry is “binds”.
Still for that read-out and setting: as for B16, the entry is “binds”.
On the same count and under the same terms, as for B17, the entry is “binds”; as for B18, “binds”; as for B19, “binds”.

A further test concerns the target hCD131-Fc (IME021, in house) (human) (UniProt P32927). The test can be described thus: flow sorting of B cells of immunised ATX-GL mice stained with fluorescent hCD131-Fc, then single-cell sequencing.
Turning to B20, the binding entry is reported as “binds”.
Same read-out and setting: the entry for B21 is “binds”.
On the same count and under the same terms, the entry for B22 is “binds”.
